Experimental data reported in publication PMC11677858.
These are yes or no findings as the source states them, for the method shown. A result given as binding can be weak or reduced; the word gives no strength. Sequences can lack the tags named with a protein. For some assays here: In cells and extracts the contact can be indirect.

B1: auxin response factor 24 (OsARF24), prey fusion OsARF24-pPR3-N (protein, UniProt Q2QQX6 1-841)
chain: MAAAATAAASPVEGLTGGGGGGGGGVDGLFVELWRACAGPLVTVPAVGERVFYLPQGHIEQVEASTNQVAEQQGAPLYNLPWKIPCKVMNVELKAEPDTDEVYAQLTLLPEKQQDGNGSGNGNVSKDKVEEEEVVPPAATERPRVHSFCKTLTASDTSTHGGFSVLRRHADECLPPLDMSQHPPTQELVAKDLHGVEWRFRHIFRGQPRRHLLQSGWSVFVSAKRLVAGDAFIFLRGENGELRVGVRRAMRQQANIPSSVISSHSMHLGVLATAWHAVNTGTMFTVYYKPRTSPSEFVVPRDLYKESLKRNHSIGMRFKMTFEGEEAAEQRFTGTIVGVGDSDPSGWADSKWRSLKVRWDEAASVPRPDRVSPWQIEPANSPSPVNPLPAPRTKRARPNVLASSPDLSAVNKEVASKVMANSQQNGLPRAFHSQENMNLRSRFGDSNELNTSQKLTMWSSGSNQEKNNVSVQRELGSQSWMQMRRPDGSSEILSGFQPLKDTRNPLSSFPSQISGNRSNTWNTINVHYPDQNANHNMYPGTWSLMPPNTGFGVNQQNYLMTPDITLPQRSLNAKFGGNGAFTSLRAHGIDQRSSGWLGHIEPSSHIDDASSSLIKPQPLVIDHNVQKAKGSSCMLFGISLDSPAKPELLISPPSVAFDGKLQQDALEEDECSDPSKTVKPLDGAQHDSAREKHQSCPDGTKNIQSKQQNGSSRSCKKVHKQGIALGRSIDLTKFTCYDELIAELDQMFDFNGELNSSSKNWMVVYTDNEGDMMLVGDDPWNEFCNMVHKIFIYTREEVQKMNPGALNSRSEDSRSTSVERGLVGEGLQGGLSTPSLNSENC
B2: OsARF24:nGFP (protein, UniProt Q2QQX6 1-841)
chain: B1 chain

Experiments:
[1] = target: leucine-rich receptor like kinase LRK2, bait fusion LRK2-PBT3-SUC (rice (Oryza sativa)); experiment: two-hybrid; LRK2 as bait in PBT3-SUC, OsARF24 as prey in pPR3-N, yeast strain NMY51; growth on SD/-Leu-Trp and SD-Trp-His-Leu-Ade medium, 28 °C, 3 days
[2] = target: LRK2:cGFP (rice (Oryza sativa)); experiment: split reporter; BiFC with LRK2:cGFP and OsARF24:nGFP, Agrobacterium mixed with p19 and injected into leaves of 3-week-old tobacco plants; confocal microscope

Row | Binder | binding [1] | binding [2]
1 | B1 | binds | –
2 | B2 | – | binds
